Test results from PubChem BioAssay AID504444 (National Center for Advancing Translational Sciences (NCATS), 2011).
Screen size: about 360,000 compounds; about 7,500 (2.1%) were called active. This list was built around the results that the source calls inconclusive (neither active nor inactive); the mix of calls is not that of the screen. The call rests on the fitted dose curve; in most records, active means well fitted inhibition curve with a large enough effect; inconclusive means small, poorly fitted or top-dose-only effect, or effect the other way; inactive means flat fitted curve, though single readings scatter. Where the call is inconclusive, the potency comes from a doubtful curve fit.

Test: Nrf2 qHTS screen for inhibitors; further: nearly all actives have a fitted effect of over 60% in size
Settings: A549 ARE-Fluc reporter, luciferase luminescence, 18-24 h; series mostly up to 46 µM
Summary of the method: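 A549 ARE_Fluc cells, 5000/well, 5% FBS OPTI-MEM; compounds in dose-response, 18-24 h at 37 °C/5% CO2; CellTiter-Fluor viability read (Ex 405/Em 525), then BugLite luciferase luminescence = Nrf2 activity.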
Potency means the concentration at half of the fitted maximal effect.

Row | SMILES | Potency
1 | O=c1[nH]c(-c2ccccc2Cl)nc2c1sc(=S)n2-c1ccccc1 | inconclusive: 13 µM [falling, partial curve, poor fit]
2 | CC(=O)Nc1ccc(S(=O)(=O)NNc2ccc([N+](=O)[O-])cc2)cc1 | inconclusive: 11.6 µM [falling, partial curve, poor fit]
3 | CCCn1c(C)cc(C(=O)CN2C(=O)c3ccccc3C2=O)c1C | inconclusive: 29.1 µM [falling, single point]
4 | CC(C)CNc1oc(-c2ccco2)nc1C#N | inactive
5 | O=C(CSc1nc2ccccc2n1-c1ccccc1)Nc1ncc(Cl)cc1Cl | inconclusive: 8.2 µM [activator, single point]
6 | Cc1c(C(=O)N2CCN(c3ccccn3)CC2)oc2ccccc12 | inconclusive: 16.4 µM [falling, single point]
7 | Cc1ccc(-n2c(Cl)c(Cl)nc(Cl)c2=O)cc1 | inconclusive: 29.1 µM [falling, single point]
8 | Cc1ccc(Nc2nc(C#N)nc(NC3CCCC3)n2)cc1 | inactive
9 | O=C(Nc1ccccc1-c1ccccc1)C12CC3CC(CC(C3)C1)C2 | inconclusive: 29.1 µM [activator, single point]
10 | Cc1ccc(-c2nonc2NC(=O)c2ccco2)cc1C | inconclusive: 2.31 µM [falling, full curve, poor fit]
11 | CSc1nnc(N2C(=O)C(O)=C(C(=O)c3ccc(C)o3)C2c2ccc(C)cc2)s1 (stereo not given) | inconclusive: 29.1 µM [falling, single point]
12 | COC(=O)c1ccc(/C=N/NC(=O)c2ccccc2Cl)cc1 | inactive
13 | Cc1ccc(-c2nn(CC(=O)Nc3cccc(C(F)(F)F)c3)c(=O)c3ccccc23)cc1 | inconclusive: 20.6 µM [falling, single point]
14 | N/C(=N\OC(=O)Cc1ccc(Cl)cc1)c1ccccn1 | inconclusive: 11.6 µM [activator, partial curve]
15 | COc1cccc(C2c3c(oc4ccccc4c3=O)C(=O)N2CCCN2CCOCC2)c1OC (stereo not given) | inactive
16 | COc1ccc2c(CC(=O)NNC(=O)c3ccc(C)cc3)coc2c1 | inconclusive: 11.6 µM [activator, partial curve, poor fit]
17 | C(=NOCCc1ccccc1)c1ccncc1 | inconclusive: 14.6 µM [activator, single point]
18 | COc1ccc(C2SCCN2C(=S)Nc2ccc(F)cc2)cc1 (stereo not given) | inactive
19 | COc1ccc(NC(=O)C2COc3ccccc3O2)cc1 (stereo not given) | inconclusive: 8.2 µM [activator, partial curve]
20 | CCCN(Cc1ccccc1)C(=O)Nc1ccc2c(c1)nnn2C | inconclusive: 8.2 µM [activator, partial curve]

In the list so far, four have an aryl methoxy group:
Row | SMILES | Potency
15 | COc1cccc(C2c3c(oc4ccccc4c3=O)C(=O)N2CCCN2CCOCC2)c1OC (stereo not given) | inactive
16 | COc1ccc2c(CC(=O)NNC(=O)c3ccc(C)cc3)coc2c1 | inconclusive: 11.6 µM [activator, partial curve, poor fit]
18 | COc1ccc(C2SCCN2C(=S)Nc2ccc(F)cc2)cc1 (stereo not given) | inactive
19 | COc1ccc(NC(=O)C2COc3ccccc3O2)cc1 (stereo not given) | inconclusive: 8.2 µM [activator, partial curve]
